These are yes or no findings as the source states them, for the method shown. In cells and extracts the contact can be indirect. These calls come from enrichment with a bait or labelling near it, and not all partners need be listed.
Biological target: Flag-RCOR1 (UniProt Q9UKL0)
Experiment: affinity purification with mass spectrometry; H526 cells stably expressing Flag-tagged E2F7 or RCOR1 lysed in 1% NP40 buffer; supernatant incubated with M2 Flag resin overnight, washed with lysis buffer, eluted with 3XFlag peptide; background of Flag vector control subtracted

Sequences of proteins named here, by UniProt entry; tags and fusion partners are left off.
UniProt Q9UKL0: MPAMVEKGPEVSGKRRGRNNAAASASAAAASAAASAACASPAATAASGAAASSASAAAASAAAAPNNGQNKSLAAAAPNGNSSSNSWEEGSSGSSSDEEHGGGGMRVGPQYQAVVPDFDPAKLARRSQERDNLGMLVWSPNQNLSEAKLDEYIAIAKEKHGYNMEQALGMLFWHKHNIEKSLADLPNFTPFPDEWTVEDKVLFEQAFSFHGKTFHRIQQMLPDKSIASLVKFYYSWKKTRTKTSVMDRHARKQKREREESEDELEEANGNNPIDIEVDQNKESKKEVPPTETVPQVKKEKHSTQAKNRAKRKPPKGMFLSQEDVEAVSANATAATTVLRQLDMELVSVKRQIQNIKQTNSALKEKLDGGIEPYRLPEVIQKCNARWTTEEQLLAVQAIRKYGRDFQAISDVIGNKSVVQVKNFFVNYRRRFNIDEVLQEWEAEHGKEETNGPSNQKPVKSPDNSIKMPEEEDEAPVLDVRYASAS

B1: endogenous E2F7 (protein, UniProt Q96AV8 1-911)
chain: MEVNCLTLKDLISPRQPRLDFAVEDGENAQKENIFVDRSRMAPKTPIKNEPIDLSKQKKFTPERNPITPVKFVDRQQAEPWTPTANLKMLISAASPDIRDREKKKGLFRPIENKDDAFTDSLQLDVVGDSAVDEFEKQRPSRKQKSLGLLCQKFLARYPSYPLSTEKTTISLDEVAVSLGVERRRIYDIVNVLESLHLVSRVAKNQYGWHGRHSLPKTLRNLQRLGEEQKYEEQMAYLQQKELDLIDYKFGERKKDGDPDSQEQQLLDFSEPDCPSSSANSRKDKSLRIMSQKFVMLFLVSKTKIVTLDVAAKILIEESQDAPDHSKFKTKVRRLYDIANVLTSLALIKKVHVTEERGRKPAFKWIGPVDFSSSDEELVDVSASVLPELKRETYGQIQVCAKQKLARHGSFNTVQASERIQRKVNSEPSSPYREEQGSGGYSLEIGSLAAVYRQKIEDNSQGKAFASKRVVPPSSSLDPVAPFPVLSVDPEYCVNPLAHPVFSVAQTDLQAFSMQNGLNGQVDVSLASAASAVESLKPALLAGQPLVYVPSASLFMLYGSLQEGPASGSGSERDDRSSEAPATVELSSAPSAQKRLCEERKPQEEDEPATKRQSREYEDGPLSLVMPKKPSDSTDLASPKTMGNRASIPLKDIHVNGQLPAAEEISGKATANSLVSSEWGNPSRNTDVEKPSKENESTKEPSLLQYLCVQSPAGLNGFNVLLSGSQTPPTVGPSSGQLPSFSVPCMVLPSPPLGPFPVLYSPAMPGPVSSTLGALPNTGPVNFSLPGLGSIAQLLVGPTAVVNPKSSTLPSADPQLQSQPSLNLSPVMSRSHSVVQQPESPVYVGHPVSVVKLHQSPVPVTPKSIQRTHRETFFKTPGSLGDPVLKRRERNQSRNTSSAQRRLEIPSGGAD
  binding: binds

From PMC10516997
